Article PMC12267381
These are yes or no findings as the source states them, for the method shown. Binding seen in cells or lysates may run through a third protein. Here binding means that the protein was enriched with, or labelled near, the bait; the list need not be complete.

Target: T1, Sterol regulatory element binding protein 1 (mouse (endogenous in bEND.3)) (UniProt Q9WTN3)
T1 sequence: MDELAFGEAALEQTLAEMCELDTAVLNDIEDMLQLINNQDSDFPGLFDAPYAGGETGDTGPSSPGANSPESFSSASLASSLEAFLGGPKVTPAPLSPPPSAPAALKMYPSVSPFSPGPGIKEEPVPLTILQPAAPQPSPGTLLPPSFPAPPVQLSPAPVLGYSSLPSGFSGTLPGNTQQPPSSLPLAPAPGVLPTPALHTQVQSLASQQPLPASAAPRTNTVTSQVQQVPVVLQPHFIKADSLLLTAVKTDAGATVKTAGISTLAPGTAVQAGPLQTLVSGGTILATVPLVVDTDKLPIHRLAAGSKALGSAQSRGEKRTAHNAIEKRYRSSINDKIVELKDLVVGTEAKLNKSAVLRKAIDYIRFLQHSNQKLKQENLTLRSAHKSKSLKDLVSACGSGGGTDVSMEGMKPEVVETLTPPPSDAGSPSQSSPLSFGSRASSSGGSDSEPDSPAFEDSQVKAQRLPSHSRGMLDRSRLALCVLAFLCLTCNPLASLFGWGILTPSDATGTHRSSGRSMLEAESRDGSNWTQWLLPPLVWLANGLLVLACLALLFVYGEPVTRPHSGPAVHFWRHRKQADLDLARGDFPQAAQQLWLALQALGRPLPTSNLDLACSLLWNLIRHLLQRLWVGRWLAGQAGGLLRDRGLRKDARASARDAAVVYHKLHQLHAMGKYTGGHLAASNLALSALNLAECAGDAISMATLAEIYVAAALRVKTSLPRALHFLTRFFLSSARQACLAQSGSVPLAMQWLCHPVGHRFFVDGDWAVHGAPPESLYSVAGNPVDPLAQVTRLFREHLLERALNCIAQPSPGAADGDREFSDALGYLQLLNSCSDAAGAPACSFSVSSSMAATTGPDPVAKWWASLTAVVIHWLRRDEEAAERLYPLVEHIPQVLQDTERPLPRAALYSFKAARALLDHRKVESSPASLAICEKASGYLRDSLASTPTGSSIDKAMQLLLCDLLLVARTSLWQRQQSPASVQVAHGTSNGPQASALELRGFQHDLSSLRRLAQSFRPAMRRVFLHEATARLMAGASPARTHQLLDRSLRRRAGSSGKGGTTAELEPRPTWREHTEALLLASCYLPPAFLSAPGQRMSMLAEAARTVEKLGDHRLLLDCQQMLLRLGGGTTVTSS
Assay: affinity purification with mass spectrometry; proteins precipitated with anti-SREBP1 antibody from endothelial cells treated for 24 h with Erastin or Erastin + SDF-1α, identified by mass spectrometry

B1: metadherin (protein, UniProt Q80WJ7 1-579)
chain: MAARSWQDELAQQAEEGSARLRELLSVGLGFLRTELGLDLGLEPKRYPGWVILVGTGALGLLLLFLLGYGWAAACAGARKKRRSPPRKREEAAPPTPAPDDLAQLKNLRSEEQKKKNRKKLPEKPKPNGRTVEVPEDEVVRNPRSITAKQAPETDKKNEKSKKNKKKSKSDAKAVQNSSRHDGKEVDEGAWETKISHREKRQQRKRDKVLTDSGSLDSTIPGIENIITVTTEQLTTASFPVGSKKNKGDSHLNVQVSNFKSGKGDSTLQVSSRLNENLTVNGGGWSEKSVKLSSQLSEEKWNSVPPASAGKRKTEPSAWTQDTGDTNANGKDWGRNWSDRSIFSGIGSTAEPVSQSTTSDYQWDVSRNQPYIDDEWSGLNGLSSADPSSDWNAPAEEWGNWVDEDRASLLKSQEPISNDQKVSDDDKEKGEGALPTGKSKKKKKKKKKQGEDNSHTQDTEDLEKDTREELPVNTSKARPKQEKACSLKTMSTSDPAEVLIKNSQPVKTLPPAISAEPSITLSKGDSDNSSSQVPPMLQDTDKPKSNAKQNSVPPSQTKSETNWESPKQIKKKKKARRET
- binding: binds
